Results are given in words; binding and its absence hold for the method and conditions named. Binding seen in cells or lysates may run through a third protein. Some entries that bind do so weakly or less than the wild type.
Assays:
[1] = target: cyclin D2 (mouse (endogenous in foetal liver HSPCs)) (UniProt P30280); assay: co-IP; lysates of equal numbers of sorted GFP+ WT HSPCs expressing Fbxo7 or the empty MSCV vector, in HB buffer (50 mM Hepes pH 7.4, 150 mM NaCl, 20 mM EDTA, 1 mM DTT, 0.5% Triton-X-100); immunoprecipitated at 4°C for 4 hrs with anti-cyclin D2 or anti-cyclin D3, Protein A/G Plus agarose; western blot for Cdk6
[2] = target: T1, cyclin D3 (mouse (endogenous in foetal liver HSPCs)) (UniProt P30282); assay: as above
T1 sequence: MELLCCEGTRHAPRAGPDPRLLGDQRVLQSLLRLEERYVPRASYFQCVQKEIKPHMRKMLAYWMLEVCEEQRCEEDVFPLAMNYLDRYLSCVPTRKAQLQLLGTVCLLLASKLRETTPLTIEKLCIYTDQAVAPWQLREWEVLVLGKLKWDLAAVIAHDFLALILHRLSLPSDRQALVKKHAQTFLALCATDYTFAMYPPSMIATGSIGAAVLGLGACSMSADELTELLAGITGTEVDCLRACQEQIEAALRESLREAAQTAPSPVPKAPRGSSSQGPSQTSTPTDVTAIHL

Amino acid sequences for entries named in this document (tags omitted).
UniProt P30280: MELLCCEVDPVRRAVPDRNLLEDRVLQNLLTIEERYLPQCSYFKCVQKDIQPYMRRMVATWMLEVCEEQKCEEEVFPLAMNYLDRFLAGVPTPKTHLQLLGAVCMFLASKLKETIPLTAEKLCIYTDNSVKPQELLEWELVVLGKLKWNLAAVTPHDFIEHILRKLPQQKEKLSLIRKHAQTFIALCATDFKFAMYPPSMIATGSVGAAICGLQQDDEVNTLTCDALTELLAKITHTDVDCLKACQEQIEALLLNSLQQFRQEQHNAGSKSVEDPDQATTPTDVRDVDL
UniProt Q64261: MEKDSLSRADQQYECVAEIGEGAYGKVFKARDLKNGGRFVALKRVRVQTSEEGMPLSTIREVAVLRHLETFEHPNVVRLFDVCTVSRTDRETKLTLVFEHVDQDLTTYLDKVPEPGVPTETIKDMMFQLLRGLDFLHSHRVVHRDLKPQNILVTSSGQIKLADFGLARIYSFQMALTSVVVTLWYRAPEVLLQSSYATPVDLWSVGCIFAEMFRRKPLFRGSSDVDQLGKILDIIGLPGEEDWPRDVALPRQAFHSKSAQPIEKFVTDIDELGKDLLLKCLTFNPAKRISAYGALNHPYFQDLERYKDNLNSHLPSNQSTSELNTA

Cdk6 (from UniProt Q64261 1-326)
binding [1]: binds
binding [2]: binds

Reference: PMC3117880
